Results: paper PMC10665399
No constants are given. Whether binding was seen depends on the method and setting. In cells and extracts the contact can be indirect. Here binding means that the protein was enriched with, or labelled near, the bait; the list need not be complete. Sequences can lack the tags named with a protein.

The chains behind the UniProt entries cited, without tags or fusion partners.
UniProt P05198: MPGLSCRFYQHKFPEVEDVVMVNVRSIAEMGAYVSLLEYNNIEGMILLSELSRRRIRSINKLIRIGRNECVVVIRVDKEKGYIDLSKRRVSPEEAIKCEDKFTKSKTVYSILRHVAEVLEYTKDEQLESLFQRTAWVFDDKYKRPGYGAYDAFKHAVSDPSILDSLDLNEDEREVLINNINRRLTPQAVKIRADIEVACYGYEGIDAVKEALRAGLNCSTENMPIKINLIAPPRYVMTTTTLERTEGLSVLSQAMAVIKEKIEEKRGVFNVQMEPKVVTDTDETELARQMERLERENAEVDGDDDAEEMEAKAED
UniProt Q92879: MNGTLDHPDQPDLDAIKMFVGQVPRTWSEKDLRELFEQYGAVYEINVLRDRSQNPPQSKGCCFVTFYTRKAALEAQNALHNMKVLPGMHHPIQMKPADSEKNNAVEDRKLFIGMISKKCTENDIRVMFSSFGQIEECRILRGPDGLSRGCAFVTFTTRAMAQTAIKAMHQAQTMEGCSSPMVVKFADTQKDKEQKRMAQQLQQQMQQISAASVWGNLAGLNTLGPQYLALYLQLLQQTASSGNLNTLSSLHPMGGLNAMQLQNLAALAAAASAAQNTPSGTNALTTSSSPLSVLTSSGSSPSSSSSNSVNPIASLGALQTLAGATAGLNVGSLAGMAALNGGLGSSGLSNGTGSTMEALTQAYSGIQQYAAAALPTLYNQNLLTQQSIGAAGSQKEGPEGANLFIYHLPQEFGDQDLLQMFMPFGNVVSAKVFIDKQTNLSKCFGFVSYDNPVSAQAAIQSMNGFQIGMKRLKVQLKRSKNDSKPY
UniProt Q9H7E9: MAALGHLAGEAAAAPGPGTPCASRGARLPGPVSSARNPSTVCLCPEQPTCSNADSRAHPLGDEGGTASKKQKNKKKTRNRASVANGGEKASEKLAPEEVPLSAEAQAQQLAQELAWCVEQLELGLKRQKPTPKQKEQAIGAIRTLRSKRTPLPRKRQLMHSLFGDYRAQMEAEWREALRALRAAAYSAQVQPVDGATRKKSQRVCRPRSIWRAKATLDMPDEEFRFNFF

T1: RBM42-APEX2 fusion (biallelic knock-in at the endogenous RBM42 gene, HCT116^RBM42-APEX2) (human) (UniProt Q9BTD8)
T1 sequence: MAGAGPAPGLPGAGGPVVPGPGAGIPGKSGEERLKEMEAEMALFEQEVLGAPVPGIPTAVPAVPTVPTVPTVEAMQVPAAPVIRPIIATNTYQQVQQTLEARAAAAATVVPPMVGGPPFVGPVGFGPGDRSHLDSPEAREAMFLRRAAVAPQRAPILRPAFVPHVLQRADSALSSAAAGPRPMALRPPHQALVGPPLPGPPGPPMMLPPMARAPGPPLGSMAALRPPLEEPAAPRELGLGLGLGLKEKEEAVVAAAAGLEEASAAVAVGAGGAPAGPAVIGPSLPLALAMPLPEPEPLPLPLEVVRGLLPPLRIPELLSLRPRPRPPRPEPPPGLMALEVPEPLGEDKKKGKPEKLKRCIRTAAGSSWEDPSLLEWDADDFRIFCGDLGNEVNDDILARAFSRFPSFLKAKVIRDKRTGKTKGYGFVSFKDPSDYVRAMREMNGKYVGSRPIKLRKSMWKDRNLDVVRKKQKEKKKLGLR


Target: T1, RBM42-APEX2 fusion (biallelic knock-in at the endogenous RBM42 gene, HCT116^RBM42-APEX2) (human)
Assay: proximity labelling; APEX2 knocked in at the C-terminus of endogenous RBM42 in HCT116 cells; DMSO or VP16 (10 µM, 24 h); biotin phenol, then H2O2; biotinylated proteins enriched and analysed by LC-MS/MS against control HCT116 cells

Row | Molecule | binding
1 | eukaryotic translation initiation factor 2 subunit 1 (eIF2a) (from UniProt P05198 1-315) | binds
2 | CUG binding protein 1 (CUGBP1) (from UniProt Q92879 1-486) | binds
3 | LSM4 (protein, UniProt Q9Y4Z0 1-139) MLPLSLLKTAQNHPMLVELKNGETYNGHLVSCDNWMNINLREVICTSRDGDKFWRMPECYIRGSTIKYLRIPDEIIDMVKEEVVAKGRGRGGLQQQKQQKGRGMGGAGRGVFGGRGRGGIPGTGRGQPEKKPGRQAGKQ | binds

Other lines, results leading:

Row | binding | Molecule
4 | binds | C8orff33 (from UniProt Q9H7E9 1-229)
5 | binds | hnRNP K (from UniProt P61978 1-463)
